The nature of this assay: qHTS Assay to Find Inhibitors of Chronic Active B-Cell Receptor Signaling. To be noted: ABC-DLBCL IkBa-CBG/CBR reporter, luminescence ratio (green luciferase fused to IkBa over red control in TMD8 lymphoma cells), 4 h. In outline:
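TMD8 ABC-DLBCL cells carrying doxycycline-inducible green luciferase fused to IkappaBalpha plus unfused red luciferase were exposed to compounds (up to 46 uM) for 4 hrs at 37C. Activity came from the overlap-corrected green/red luminescence ratio.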
A general note: Quantitative high-throughput screening tests each substance at several concentrations.

[1] abbreviates: measured here: CBR red luminescence, cell number.
Where [2] appears, read: measured here: IkBa-CBG green luminescence.

The structures appear in SMILES notation. Some of the results follow. The main result of the screen is listed elsewhere. These columns were measured beside it and carry no call. Most of these compounds were active or inconclusive in the main read-out, so they are no random draw. The note in brackets gives the kind of curve behind each potency; many fits are weak.

As a reminder, the AC50 is the midpoint of the concentration-response curve, whichever way the signal moves. With `OCCN1CCN(CC/C=C2/c3ccccc3Sc3ccc(C(F)(F)F)cc32)CC1`, the AC50 under setting [1] was 29.1 µM [falling, single point]. As for `COc1ccc([C@]23Cc4ccccc4C(O2)c2c(cc(C)n(Cc4ccccc4)c2=O)O3)cc1`, the AC50 under setting [1] was 5.62 µM [rising, single point]. For `COc1cc(OC)cc(-n2nnnc2SCC(=O)Nc2nc3c(s2)CCCC3)c1`, under setting [1], the AC50 was 2.91 µM [rising, single point]. In the case of `COc1ccccc1-c1noc(CCC(=O)Nc2cc(C(F)(F)F)ccc2Cl)n1`, the AC50 under setting [1] was 23.1 µM [rising, partial curve, poor fit].

For the compound `O=C(NC(NNc1ccc([N+](=O)[O-])cc1)(C(F)(F)F)C(F)(F)F)c1ccc(F)cc1`, the AC50 under setting [1] was 14.6 µM [falling, single point]. As to `CC1CCCCC12NC(=O)N(CC(=O)NC(=O)NCc1ccco1)C2=O` (stereo unspecified), under setting [1], the concentration at half-maximal activity (AC50) is 0.00461 µM [falling, full curve, poor fit].

As to `O=C(Nc1ccccc1)C1=C[C@@H](C2CCCCC2)C[C@@H](OCCCCO)O1`, the concentration at half-maximal activity (AC50) under setting [1] is 11.2 µM [falling, partial curve, poor fit].

For the compound `COc1ccccc1CNC(=O)CSc1ccc(-c2cccs2)nn1`, the concentration at half-maximal activity (AC50) under setting [1] was 35.5 µM [falling, single point].

Consider `O=C(CCC(=O)N1CCN(Cc2ccc(F)cc2)CC1)Nc1nnc(C2CCCCC2)s1`, for which the half-maximal activity concentration (AC50) under setting [1] was 11.2 µM [rising, partial curve, poor fit]. With `COc1cccc(-c2csc(N3CCN(C(=O)Nc4ccccc4OC)CC3)n2)c1`, the AC50 under setting [1] is 29.1 µM [rising, partial curve, poor fit]. Turning to `COC(=O)/C(=C\c1ccc(O)cc1)c1nc2ccccc2[nH]1`, the half-maximal activity concentration (AC50) under setting [1] is 8.91 µM [falling, partial curve, poor fit]. As for `CCCn1nc(C(=O)Nc2cccc(C(=O)OC)c2)c2ccccc2c1=O`, the AC50 under setting [1] was 10 µM [falling, partial curve, poor fit]. As to `Cc1ccc(S(=O)(=O)N[C@@H](CC(C)C)C(=O)N2CCC(C(=O)N[C@H](C(=O)O)C(C)C)CC2)cc1`, the AC50 under setting [1] is 15.8 µM [falling, single point]. As to `Cc1nc(/C(N)=N/OC(=O)c2ccccc2Cl)c(C(F)(F)F)o1`, the AC50 under setting [1] was 11.2 µM [falling, partial curve, poor fit]. Same read-out and setting: with `Cc1cccc(Nc2ncnc3nc[nH]c23)c1` the figure was 6.51 µM [falling, partial curve]; with `O=C(/C=C/c1cccc([N+](=O)[O-])c1)Nc1ccc(NC(=O)c2cccs2)cc1`, 0.103 µM [falling, full curve, poor fit].

For the compound `Cc1ccc(S(=O)(=O)NC2CCOC(C)(C)C2)cc1` (stereo unspecified), the half-maximal activity concentration (AC50) under setting [1] is 23.1 µM [falling, partial curve] and the half-maximal activity concentration (AC50) under setting [2] was 18.4 µM [rising, partial curve, poor fit]. As for `O=C(N/N=C/c1ccccc1OC(=O)c1ccc2c(c1)OCO2)c1cccc(F)c1`, under setting [1], the concentration at half-maximal activity (AC50) was 29.1 µM [falling, partial curve, poor fit]. In the case of `COc1ccc(-c2cc(C(=O)N/N=C(\C)c3cccnc3)c3ccccc3n2)cc1`, under setting [2], the AC50 was 15.8 µM [falling, partial curve, poor fit]. Take `CCN(c1ccccc1)S(=O)(=O)c1cccc(C(=O)Nc2ccc(C)cn2)c1`: the AC50 under setting [1] was 7.08 µM [falling, partial curve]. Turning to `Clc1ccc(-c2nnc(-c3ccc(Br)o3)o2)c(Cl)c1`, the half-maximal activity concentration (AC50) under setting [1] was 5.62 µM [rising, partial curve]. For the compound `COc1ccccc1OCCC(=O)OCC(=O)Nc1cc(S(=O)(=O)N(C)C)ccc1Cl`, the half-maximal activity concentration (AC50) under setting [1] is 35.5 µM [falling, single point].

Turning to `O=c1c(-c2ccco2)[n+]([O-])c2ccccc2n1OCc1ccccc1F`, the AC50 under setting [1] is 0.731 µM [falling, full curve, poor fit]. On the same count and under the same terms, the result for `CCCc1cc(=O)oc2c3c(ccc12)OCN(Cc1ccc(OC)cc1)C3` reads 12.6 µM [rising, single point]; that for `Cc1ccc(CN2C(=O)CCC2C(=O)N2CCN(c3ccccc3)CC2)cc1` (stereo unspecified), 35.5 µM [falling, single point]. For `O=C(O)c1cccc(-n2sc3ccccc3c2=O)c1`, the AC50 was 3.66 µM [falling, full curve] under setting [1] and 9.2 µM [rising, partial curve, poor fit] under setting [2]. As to `O=C(CCN1C(=O)c2ccccc2C1=O)NC(=S)Nc1ccccc1Cl`, the AC50 under setting [1] was 29.1 µM [falling, single point]. Same read-out and setting: with `COC(=O)c1ccc2c(=O)n(CCCCCC(=O)N3CCN(c4ccccc4)CC3)c(=O)[nH]c2c1` the figure was 1.64 µM [falling, partial curve].

As for `O=C(NCCc1ccccc1)c1coc(=O)c(Br)c1`, the concentration at half-maximal activity (AC50) is 5.62 µM [rising, single point] under setting [1] and 14.1 µM [falling, partial curve, poor fit] under setting [2]. With `O=C(CCN1C(=O)COc2ccccc21)NCCCN1CCc2ccccc2C1`, the AC50 under setting [1] is 29.1 µM [rising, single point]. Regarding `O=C(CC1(O)C(=O)Nc2cc(Cl)cc(Cl)c21)c1ccccc1O` (stereo unspecified), the AC50 under setting [1] was 10.3 µM [falling, partial curve, poor fit]. With `CCN(CC)CCC(=O)Nc1ccc2c(c1)N(C(=O)CN(CC)CC)c1ccccc1CC2`, under setting [1], the concentration at half-maximal activity (AC50) was 1.58 µM [falling, partial curve, poor fit]. For the compound `N/C(Cc1ccc([N+](=O)[O-])cc1)=N\OC(=O)c1ccc([N+](=O)[O-])cc1`, the half-maximal activity concentration (AC50) under setting [1] was 11.6 µM [rising, partial curve, poor fit].

Consider `COC(=O)Nc1nnc(CC(=O)Nc2ccccc2C)s1`, for which the concentration at half-maximal activity (AC50) under setting [1] was 4.61 µM [falling, single point]. On to `O=C(NN=C(Cc1ccccc1)Cc1ccccc1)c1ccc(F)cc1`, for which the half-maximal activity concentration (AC50) under setting [1] was 8.2 µM [falling, partial curve]. Regarding `O=C(CCCSc1nc2ccccc2s1)NCc1ccco1`, under setting [2], the AC50 is 2.24 µM [rising, full curve, poor fit]. As to `O=C(O)COc1ccc(-c2nccc(-c3cccs3)n2)cc1`, the AC50 under setting [1] was 8.91 µM [falling, partial curve]. Regarding `CCCc1[nH]nc2c1C(c1c(C)nn(-c3ccccc3)c1Cl)C(C#N)=C(N)O2` (stereo unspecified), under setting [1], the AC50 is 20.6 µM [falling, single point].

Source of the values: PubChem BioAssay AID493014 (National Center for Advancing Translational Sciences (NCATS), 2011).
